Results of single-concentration screens

By UniProt entry, the sequences of proteins in these tests, tags left out. Residues count along the entry.
UniProt Q4DA54, 1-478: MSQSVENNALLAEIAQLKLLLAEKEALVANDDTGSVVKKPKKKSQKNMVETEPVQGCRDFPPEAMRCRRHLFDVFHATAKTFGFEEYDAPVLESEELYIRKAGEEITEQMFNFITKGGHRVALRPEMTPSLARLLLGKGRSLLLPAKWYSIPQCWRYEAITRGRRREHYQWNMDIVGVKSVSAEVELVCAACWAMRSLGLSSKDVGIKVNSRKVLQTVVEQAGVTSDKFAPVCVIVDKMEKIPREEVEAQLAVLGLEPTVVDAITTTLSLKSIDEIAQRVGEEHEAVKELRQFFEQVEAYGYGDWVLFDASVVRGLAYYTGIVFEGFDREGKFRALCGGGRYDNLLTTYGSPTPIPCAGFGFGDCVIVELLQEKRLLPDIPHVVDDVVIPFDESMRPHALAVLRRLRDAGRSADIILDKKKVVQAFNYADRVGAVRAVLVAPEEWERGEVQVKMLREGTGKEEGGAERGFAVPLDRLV

From ChEMBL document CHEMBL3988442, “University of Dundee, Small-Polar-MMV Screening Library” (2021).

Toxoplasma: 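Assay of Toxoplasma gondii numbers, read through their beta-galactosidase reporter with a colour substrate. Concentration: 10 µM. Higher reads as fewer parasites (inferred from which compounds were picked for retests). Of about 67,000 compounds tested this way, about 260 (0.38%) reached 50% or more in at least one test.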
TcHisRS: 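Histidine-tRNA ligase, Trypanosoma cruzi CL Brener (UniProt Q4DA54). Enzyme assay of histidyl-tRNA synthetase; the read-out is not stated. Tested at 30 µM. Higher reads as stronger inhibition (inferred: compounds with an IC50 in retests scored well above the rest). Size under these conditions: about 69,000 compounds, about 31 of them at 50% or above in at least one test.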

Values are the deposited “Percent Effect”, in %. The controls that fix the scale are not given in the record; negative values are as filed. Compounds were drawn at random from those tested, without regard to their results. A dash means the value is not listed here; it may have been measured.

compound,Toxoplasma,TcHisRS
COc1ncccc1CN1Cc2nnn(C)c2C(COCC2CC2)C1.O=C(O)C(F)(F)F.O=C(O)C(F)(F)F (stereo not given),-1.441%,-
CC(c1ccccc1Cl)N(C)Cc1nc2c(cnn2C)c(=O)[nH]1 (stereo not given),17.96%,7.872%
COc1ncc(NS(=O)(=O)c2ccc(F)c(F)c2)c(OC)n1,-0.5977%,2.439%
CN1[C@H]2CC[C@@H]1CN(C(=O)c1nnc3n1CCCCC3)CC2,-,8.333%
COc1ccc(CC2(CO)CCN(c3cc(C(N)=O)ccn3)CC2)cc1,8.157%,7.826%
CCCc1noc(CCC(=O)N2CCCC2c2cccc(OC)c2)n1 (stereo not given),-18.44%,2.857%
O=C1CN(Cc2cnc3c(-c4ccccc4)cnn3c2)CCCN1,-7.155%,2.186%
CCCNC(=O)c1cc2c(s1)CCN2c1ncccn1,-14.38%,2.21%
Cn1ncc2c(NCCOCc3ccccc3)nc(C3CCCC3)nc21,33.34%,3.061%
CCn1cc(-c2nn3c(C(C)C)nnc3s2)c(C)n1,0.0801%,2.97%
COc1cc(N2CCc3ncnc(-c4ccncc4)c3CC2)ncn1.O=C(O)C(F)(F)F,-7.472%,-
Cc1ccc(C)c(S(=O)(=O)NCCC(=O)NCc2ccoc2)c1,8.488%,11.67%
N#Cc1ccccc1N1CCCN(CC(=O)Nc2ccc(Cl)cn2)CC1,2.781%,2.717%
O=C(NCCNc1ccccn1)N1CCC(O)CC1,7.687%,7.872%
CC(C)(NC(=O)C1CCN(C2CCCCC2)CC1)c1nnc(N)s1,-2.679%,-1.136%
CN(C)CCN1CCOCC2(CCCN(C(=O)c3ccccc3)C2)C1 (stereo not given),-,5.882%
Cn1cncc1CN1CC[C@](C)(O)[C@@H](Oc2cccc(F)c2)C1,-1.867%,10.99%
O=c1[nH]c(NC2CCCC2)nc2nccc(-c3cccs3)c12,0.3953%,9.091%
CCS(=O)(=O)NCCNC(=O)c1cnc(-c2ccccc2)nc1,2.145%,6.977%
Cc1noc(C(C)N2CCN(CCn3ccccc3=O)CC2)n1 (stereo not given),2.809%,6.952%
Cc1csc(N2CCCN(CCC(=O)NC(N)=O)CC2)n1,-8.935%,6.916%
Cc1[nH]nc2ncc(C(=O)N3CCN(CCC(C)C)CC3)cc12,-10.66%,0.578%
CCc1nc(CN(C(C)=O)C2CCN(CCc3cnn(C)c3)C2)no1 (stereo not given),-,3.759%
O=C(NCC(O)c1ccoc1)Nc1cccs1 (stereo not given),2.224%,8%
CC(C)(C)OC(=O)N1CCCc2ccc(NCc3ccon3)cc21,-4.697%,8.929%
Cc1cccnc1CN(C)c1ncnc2[nH]ccc12,-8.739%,2.128%
Cc1cnc(C(=O)NCc2ccnc(N(C)C)c2)cn1,-3.469%,3.79%
Cc1csc(CN2C[C@@H]3COC[C@]3(C(=O)NCc3ccco3)C2)n1,-,6.122%
CN(C)CC1CN(Cc2cccc(C(=O)N(C)C)c2)CCO1 (stereo not given),-1.059%,2.29%
CCC(C)(CNC(=O)Nc1nccs1)N1CCOCC1 (stereo not given),0.2664%,4.217%
Cc1nnsc1CN1C[C@H]2CC[C@@H]1CN(Cc1ccc(F)cc1)C2,-,7.595%
CCC1CN(c2cnn(-c3ccccc3)c(=O)c2Cl)CCO1 (stereo not given),-1.271%,5.195%
COCc1noc(CCNc2ncnc3c2CCNCC3)n1,5.982%,7.143%
Cc1cccc(NC(=O)Cc2cnc3n(C)c(=O)[nH]c(=O)n23)c1,12.2%,0.5917%
Cc1cccc(N(CCC(N)=O)CC(=O)Nc2ccccc2)c1,-10.39%,4.938%
CCc1ncc2c(n1)CN(Cc1nc3c(F)cccc3[nH]1)CC2,-8.005%,14.84%
Cc1csc(N2CCCN(Cc3ccn(C)c(=O)c3)CC2)n1,0.06242%,16.58%
Cc1nn(CC(C)C)c(N(C)C)c1CNCc1cc2ccccc2[nH]1,6.95%,6.767%
Cc1ccccc1-n1cc(-c2ccnc(N3CCCC(O)C3)n2)cn1 (stereo not given),5.401%,3.483%
CCn1c(C)nnc1CN(C)C1CCN(Cc2ccon2)C1 (stereo not given),27.07%,-3.488%
COc1ccccc1CNC(=O)CN(C)C(C)c1nccs1 (stereo not given),-24.61%,6.098%
CC1CN(CCc2ccncc2)CCO1 (stereo not given),-8.25%,-1.98%
CN(C)CCCn1ccnc1C1CCCN(c2ncc(Cl)cc2F)C1 (stereo not given),15.97%,-1.288%
CCC(O)CN1CCN(C(=O)c2ccn(-c3ccccc3)n2)CC1 (stereo not given),-15.14%,4.611%
COc1ccc(Oc2ncccc2NC(=O)N2CCOC(C)C2)cc1 (stereo not given),4.556%,4.891%
[H][C@@]12CCN(C(=O)c3cnc(C)cn3)C[C@@]1([H])O[C@H](c1nc(C)cs1)C2,9.142%,-
Cc1cccc(I)c1C(=O)NCc1ncc[nH]1,4.641%,3.784%
COc1ccc(OC)c(-c2nc(CN(C)Cc3nncn3C)c(C)o2)c1,4.817%,6.612%
CC(=O)N1CCN([C@@H]2CCC[C@@H](N(C)C(=O)C3CC3)[C@H]2O)CC1,3.074%,6.593%
N#Cc1ccc(CSCCN2CCOCC2)cc1,-1.035%,7.447%
CS(=O)(=O)N1CCO[C@@H]2CN(C(=O)c3ccnnc3)C[C@@H]2C1,-,7.778%
CC(C)n1ncc2c1NC(=O)CSC2C(C)(C)C (stereo not given),-6.814%,0.5464%
Cc1nnc2n1CCN(Cc1csc(Cc3ccccc3)n1)C2,5.277%,-0.3831%
O=C(CCC(F)(F)F)N1CCCC(c2ncc[nH]2)C1 (stereo not given),4.617%,0%
CCN1CC[C@@]2(C(=O)Nc3ccccc3)CCN(S(C)(=O)=O)CC[C@@H]12,-,-4.878%

Some entries from above, unchanged:

compound	Toxoplasma	TcHisRS
CCCc1noc(CCC(=O)N2CCCC2c2cccc(OC)c2)n1 (stereo not given)	-18.44%	2.857%
CCc1ncc2c(n1)CN(Cc1nc3c(F)cccc3[nH]1)CC2	-8.005%	14.84%
CN(C)CCCn1ccnc1C1CCCN(c2ncc(Cl)cc2F)C1 (stereo not given)	15.97%	-1.288%